Measurements reported in PubChem BioAssay AID1224829 (NIAID, 2016).
Screen: 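Follow-up of TLR4-NF-kappaB regulators using six separate siRNAs for each gene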 (follow-up of hits). Cell system: mouse RAW264.7 G9 macrophage reporter cells. Knock-down reagent: single siRNA against mouse genes, 100 nM. Time to read-out: 2 days of siRNA knock-down, then 40 min of LPS before fixing. Challenge: LPS (Salmonella minnesota R595) at 10 ng/ml. Read-out: 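Imaging of GFP-p65 after 40 min of LPS; nuclear over perinuclear ring intensity ratio, scaled to plate median and non-targeting control wells, given as z-score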. Direction: p65 translocation z-score: higher = more nuclear NF-kappaB p65 after LPS. Call rule: 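An siRNA is called active when the mean z-score of its two replicates is above 2 or below -2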. Meaning of the calls: active = changed p65 translocation (either direction); inactive = no clear change.
Shown is an unselected part of about 3,800 reagents. 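Calls cover raised and lowered translocation; gene median uses one vendor's three siRNAs; qiagen siRNAs acted more weakly than ambion siRNAs.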 Reagents against one gene are numbered here. Further read-outs or replicates are left out here. Reagent sequences are not shown.

Stradb (STE20-related kinase adaptor beta) #1, siRNA vendor or control pool ambion single siRNA: p65 translocation z-score, replicate mean = -0.17; call = inactive
Stradb (STE20-related kinase adaptor beta) #2, siRNA vendor or control pool ambion single siRNA: p65 translocation z-score, replicate mean = 1.11; call = inactive
Stradb (STE20-related kinase adaptor beta) #3, siRNA vendor or control pool ambion single siRNA: p65 translocation z-score, replicate mean = -1.82; call = inactive
Stradb (STE20-related kinase adaptor beta) #4, siRNA vendor or control pool qiagen single siRNA: p65 translocation z-score, replicate mean = -0.117; call = inactive
Stradb (STE20-related kinase adaptor beta) #5, siRNA vendor or control pool qiagen single siRNA: p65 translocation z-score, replicate mean = 0.626; call = inactive
Stradb (STE20-related kinase adaptor beta) #6, siRNA vendor or control pool qiagen single siRNA: p65 translocation z-score, replicate mean = 0.727; call = inactive
Thrap3 (thyroid hormone receptor associated protein 3) #1, siRNA vendor or control pool ambion single siRNA: p65 translocation z-score, replicate mean = -1.33; call = inactive
Thrap3 (thyroid hormone receptor associated protein 3) #2, siRNA vendor or control pool ambion single siRNA: p65 translocation z-score, replicate mean = -1.76; call = inactive
Thrap3 (thyroid hormone receptor associated protein 3) #3, siRNA vendor or control pool ambion single siRNA: p65 translocation z-score, replicate mean = -0.657; call = inactive
Thrap3 (thyroid hormone receptor associated protein 3) #4, siRNA vendor or control pool qiagen single siRNA: p65 translocation z-score, replicate mean = 2.75; call = active
Thrap3 (thyroid hormone receptor associated protein 3) #5, siRNA vendor or control pool qiagen single siRNA: p65 translocation z-score, replicate mean = 0.207; call = inactive
Thrap3 (thyroid hormone receptor associated protein 3) #6, siRNA vendor or control pool qiagen single siRNA: p65 translocation z-score, replicate mean = -0.396; call = inactive
